These are yes or no findings as the source states them, for the method shown. For some of these results: Tags and fused reporters may be left off the sequences shown.
How the values were obtained:
membrane-bound Arl1 = molecular target: T1, membrane-bound Arl1 (UniProt P38116); experiment: co-sedimentation; liposome pelleting; Arf1 or Arl1 bound to liposomes after EDTA-mediated loading with the indicated nucleotide; fraction recovered relative to liposome-free pelleting; both purified
T1 sequence: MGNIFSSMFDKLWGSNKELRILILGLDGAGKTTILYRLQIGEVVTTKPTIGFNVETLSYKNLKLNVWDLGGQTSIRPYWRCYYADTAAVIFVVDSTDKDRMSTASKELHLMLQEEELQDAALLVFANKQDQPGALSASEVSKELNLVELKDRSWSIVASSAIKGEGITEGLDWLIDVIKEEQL

myristoylated Arf1 = molecular target: T2, myristoylated Arf1 (UniProt P11076); experiment: as above
T2 sequence (chain, myristoylated (coexpressed with NMT1)): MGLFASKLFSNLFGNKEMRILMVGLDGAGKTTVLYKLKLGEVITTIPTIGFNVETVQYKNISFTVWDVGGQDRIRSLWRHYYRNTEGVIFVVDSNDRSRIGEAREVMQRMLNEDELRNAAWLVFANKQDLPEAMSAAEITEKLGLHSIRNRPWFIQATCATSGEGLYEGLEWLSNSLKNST

GST-Arf1 = molecular target: T3, GST-Arf1 (UniProt P11076); experiment: pull-down; pulldown of Sec7ΔC with a great excess of GST-GTPase bound to GDP or GMPPNP; SDS-PAGE, Coomassie staining; both purified
T3 sequence: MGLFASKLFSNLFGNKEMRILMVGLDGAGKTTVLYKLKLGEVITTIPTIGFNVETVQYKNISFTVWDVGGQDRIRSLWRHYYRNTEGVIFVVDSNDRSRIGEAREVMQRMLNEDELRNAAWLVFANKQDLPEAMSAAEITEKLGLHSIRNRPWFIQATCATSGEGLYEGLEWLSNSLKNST

GST-Arl1 = molecular target: T4, GST-Arl1 (UniProt P38116); experiment: as above
T4 sequence: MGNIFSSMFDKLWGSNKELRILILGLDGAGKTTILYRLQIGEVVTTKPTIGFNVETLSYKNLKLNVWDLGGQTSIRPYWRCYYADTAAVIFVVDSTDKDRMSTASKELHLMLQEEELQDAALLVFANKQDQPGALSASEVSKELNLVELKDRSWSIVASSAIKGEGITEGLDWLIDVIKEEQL

Measured: binding

B1: S. cerevisiae Sec7ΔC (residues 203-1017) (domain or fragment, UniProt P11075 203-1017, looked up)
chain: PRSTHTRNISLSSNGSNTNSTIILVKTTLETILNDKDIKKNSNAQKAIERTLQKFKEFDPQTTNNPHYVDSILVFEALRASCRTKSSKVQSLALDCLSKLFSFRSLDETLLVNPPDSLASNDQRQDAADGITPPPKQKIIDAAIDTISDCFQGEGTDDRVELQIVRALSSCILEEDSSSLCHGASLLKAIRTIYNVFVFSLNPSNQGIAQATLTQIISSVYDKIDLKQSTSSAVSLSTKNHQQQSAIELSEASENAETPAPLTLENMDKLNDDEERLMDAQQPDSIAITNQDLAVKDAFLVFRVMAKICAKPLETELDMRSHAVRSKLLSLHIIYSIIKDHIDVFLSHNIFLPGKERVCFIDSIRQYLRLVLSRNAASPLAPVFEVTLEIMWLLIANLRADFVKEIPVFLTEIYFPISELTTSTSQQKRYFLSVIQRICNDPRTLVEFYLNYDCNPGMPNVMEITVDYLTRLALTRVEITQTQRSYYDEQISKSLSTYNFSQLPLLTSSNLSSSPDVGQVNLLFPLDFALKMVSLNCIVSVLRSLSSWAHKALNPNTHTANKVLLNTTSSARQESRSSLSNDVRSSIMTSNDDFKPTYEDEESRSLSSQNIDADDPTQFENLKLRKTALSECIAIFNNKPKKAIPVLIKKGFLKDDSPISIAKWLLETEGLDMAAVGDYLGEGDDKNIAIMHAFVDEFDFTGMSIVDALRSFLQSFRLPGEGQKIDRFMLKFAERFVDQNPGVFSKADTAYVLSYSLIMLNTDLHSSQIKNKMSLQEFLENNEGIDNGRDLPRDFLEGLFNEIANNEIKLISEQH
notes: Sec7 of S. cerevisiae, residues 203-1017 (DCB/HUS and GEF domains); also called Sec7(203-1017); construct lacking the HDS1-4 domains with the GEF domain; source: E. coli, purified (Ni-NTA, MonoQ, Superdex 200)
no binding: membrane-bound Arl1 | myristoylated Arf1 | GST-Arf1 | GST-Arl1

Reference: publication PMC4764562, “The Sec7 N-terminal regulatory domains facilitate membrane-proximal activation of the Arf1 GTPase” (eLife, 2016)
